Experimental data published in PMC8500839, “Structures of outer-arm dynein array on microtubule doublet reveal a motor coordination mechanism” (Nature Structural & Molecular Biology, 2021).
No constants are given. Whether binding was seen depends on the method and setting. Binding can be weak; no strength is given.

Tests used:
Experiment in all cases: cryo-EM structure; freshly purified native OAD (not cross-linked) reconstituted on MTD in 20 mM HEPES pH 7.4, 100 mM KCl, 5 mM MgSO4, 1 mM DTT, on ice 45 min; apo state, no docking complex; two classes MTBS-1 and MTBS-2; MTD lattice refined from the same data; both purified
[1] = target: T1, outer-arm dynein intermediate chain IC2 (T. thermophila, UniProt I7M008 1-667)
T1 construct: outer-arm dynein intermediate chain 2, T. thermophila, native subunit; source: purified from T. thermophila cilia as a subunit of native OAD (high salt extraction, sucrose gradient, ion exchange)
T1 sequence (looked up): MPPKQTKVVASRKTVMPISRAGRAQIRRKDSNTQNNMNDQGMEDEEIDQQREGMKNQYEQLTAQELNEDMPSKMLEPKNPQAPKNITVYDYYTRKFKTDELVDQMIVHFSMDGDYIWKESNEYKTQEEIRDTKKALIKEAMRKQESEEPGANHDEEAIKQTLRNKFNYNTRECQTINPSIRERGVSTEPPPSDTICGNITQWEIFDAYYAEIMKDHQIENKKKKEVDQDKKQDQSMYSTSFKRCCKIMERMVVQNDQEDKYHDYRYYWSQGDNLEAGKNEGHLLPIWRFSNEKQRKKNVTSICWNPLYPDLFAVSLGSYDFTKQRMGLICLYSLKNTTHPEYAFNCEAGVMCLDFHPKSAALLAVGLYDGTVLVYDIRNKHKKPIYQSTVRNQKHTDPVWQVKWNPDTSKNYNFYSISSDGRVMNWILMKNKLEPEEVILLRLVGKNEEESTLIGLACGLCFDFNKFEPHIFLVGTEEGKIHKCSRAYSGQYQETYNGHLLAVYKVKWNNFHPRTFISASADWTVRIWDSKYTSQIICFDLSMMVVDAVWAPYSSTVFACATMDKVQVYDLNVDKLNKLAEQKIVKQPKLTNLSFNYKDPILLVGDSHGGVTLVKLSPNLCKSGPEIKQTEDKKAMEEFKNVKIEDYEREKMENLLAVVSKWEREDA

[2] = target: T2, outer-arm dynein intermediate chain IC3 (T. thermophila, UniProt Q23FU1 1-670)
T2 construct: outer-arm dynein intermediate chain 3, T. thermophila, native subunit; source: purified from T. thermophila cilia as a subunit of native OAD (high salt extraction, sucrose gradient, ion exchange)
T2 sequence (looked up): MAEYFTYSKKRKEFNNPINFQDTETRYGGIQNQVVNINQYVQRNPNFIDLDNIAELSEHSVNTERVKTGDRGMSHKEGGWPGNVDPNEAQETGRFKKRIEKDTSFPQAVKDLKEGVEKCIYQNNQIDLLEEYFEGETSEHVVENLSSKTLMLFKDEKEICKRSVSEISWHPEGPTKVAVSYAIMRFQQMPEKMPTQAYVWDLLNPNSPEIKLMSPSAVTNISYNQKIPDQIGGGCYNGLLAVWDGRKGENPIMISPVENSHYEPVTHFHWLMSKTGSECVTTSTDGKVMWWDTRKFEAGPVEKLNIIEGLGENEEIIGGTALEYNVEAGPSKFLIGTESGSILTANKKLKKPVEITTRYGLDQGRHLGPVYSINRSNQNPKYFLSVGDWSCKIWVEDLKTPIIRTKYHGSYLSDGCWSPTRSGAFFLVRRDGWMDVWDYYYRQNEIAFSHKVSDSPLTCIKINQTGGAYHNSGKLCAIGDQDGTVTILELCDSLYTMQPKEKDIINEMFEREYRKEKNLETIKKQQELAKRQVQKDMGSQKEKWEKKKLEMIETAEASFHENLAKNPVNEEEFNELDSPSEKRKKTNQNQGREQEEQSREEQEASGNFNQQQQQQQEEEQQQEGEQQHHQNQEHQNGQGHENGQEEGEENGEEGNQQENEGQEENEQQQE

[3] = target: LC7-b (LC7B) (T. thermophila)

Molecule: LC7-b (LC7B) (T. thermophila)
- binding [1]: binds
- binding [2]: binds

B1: LC7-a (unnamed LC7A homolog, TTHERM_00348650) (protein, UniProt Q22MV2 1-159)
chain: MIYKTSKEIQKSDQRIIQQRVENSIINNQIYQKSLKRKTSKRKVRHQANKKNFQKEMSEVEDTLNRIKTHKTVLGYLIVNSEGGVVRGAFKDEEESKNIANSIPLLTKKARSVVRDLDPTNDLVFLRIQTKLNEIMVAPDDEFSLIVIQTKGEKRDEND
- binding [3]: binds
